In US20160367623A1, “AGONISTS OF GUANYLATE CYCLASE USEFUL FOR THE TREATMENT OF GASTROINTESTINAL DISORDERS, INFLAMMATION, CANCER AND OTHER DISORDERS” (priority 2015, published 2016):
The source gives many values for each of these; only a part stands here.

Assays:
Type in all cases: in vivo, human
[1] = tested on: patients with chronic idiopathic constipation (CIC); experiment: Second phase 3 CIC trial: change from baseline in stool consistency (BSFS); conditions: All Randomized (includes Duplicate Patients)
[2] = tested on: patients with chronic idiopathic constipation (CIC); experiment: Second phase 3 CIC trial: change from baseline in CSBMs/week; conditions: All Randomized (includes Duplicate Patients)
[3] = tested on: patients with chronic idiopathic constipation (CIC); experiment: Second phase 3 CIC trial: CSBM weekly responders by week; conditions: All Randomized (includes Duplicate Patients), MRA
Excerpt: Both trials include a two-week pre-treatment baseline period, a 12-week treatment period, and a two-week post-treatment period. The phase 3 CIC program was designed to support regulatory submission in the U. S.
The primary endpoint for both trials is the proportion of durable overall responders (%), which is the current regulatory endpoint required for U.S. approval in CIC. The FDA has defined a durable overall responder as a patient who fulfills both ≧3 complete spontaneous bowel movements (CSBMs) per week plus an increase of ≧1 CSBM from baseline in the same week, for 9 out of the 12 treatment weeks. In addition, the same patient must be an overall responder for at least 3 of the last 4 treatment weeks in order to be considered a durable overall responder.
Patients were selected using Rome 3 criteria modified for CIC and had (1) fewer than 3 defecations per week, (2) loose stools occurring rarely without laxatives, (3) inadequate criteria for irritable bowel syndrome with constipation (IBS-C), and (4) at least two of the following applied to at least 25% of defecations: (a) straining during evacuation, (b) lumpy or hard stools, (c) sensation of anorectal obstruction or blockage. Rome 3 requires patients to fulfill the criteria for the last 3 months with symptom onset at least 6 months prior to diagnosis.

## Asn^1-Asp^2-Glu^3-Cys^4-Glu^5-Leu^6-Cys^7-Val^8-Asn^9-Val^10-Ala^11-Cys^12-Thr^13-Gly^14-Cys^15-Leu^16 (NDECELCVNVACTGCL; disulfides C4-C12, C7-C15) [Plecanatide, uroguanylin analogue, guanylate cyclase-C agonist; (C4:C12, C7:C15) bicycle peptide]
[1]; 3 mg, Week 5
  Change from Baseline in Stool Consistency, Mean (SD): 1.69 (1.456)
[1]; 3 mg, Week 6
  Change from Baseline in Stool Consistency, Mean (SD): 1.68 (1.530)
[1]; 3 mg, Week 7
  Change from Baseline in Stool Consistency, Mean (SD): 1.59 (1.435)
[1]; 3 mg, Week 8
  Change from Baseline in Stool Consistency, Mean (SD): 1.71 (1.489)
[1]; 3 mg, Week 9
  Change from Baseline in Stool Consistency, Mean (SD): 1.67 (1.455)
[1]; 3 mg, Week 10
  Change from Baseline in Stool Consistency, Mean (SD): 1.64 (1.524)
[1]; 3 mg, Week 11
  Change from Baseline in Stool Consistency, Mean (SD): 1.57 (1.579)
[1]; 3 mg, Week 12
  Change from Baseline in Stool Consistency, Mean (SD): 1.69 (1.468)
[1]; 6 mg, Week 4
  Change from Baseline in Stool Consistency, Mean (SD): 1.42 (1.596)
[1]; 6 mg, Week 5
  Change from Baseline in Stool Consistency, Mean (SD): 1.56 (1.598)
[1]; 6 mg, Week 6
  Change from Baseline in Stool Consistency, Mean (SD): 1.54 (1.525)
[1]; 6 mg, Week 7
  Change from Baseline in Stool Consistency, Mean (SD): 1.54 (1.543)
[1]; 6 mg, Week 8
  Change from Baseline in Stool Consistency, Mean (SD): 1.51 (1.538)
[1]; 6 mg, Week 9
  Change from Baseline in Stool Consistency, Mean (SD): 1.60 (1.511)
[1]; 6 mg, Week 10
  Change from Baseline in Stool Consistency, Mean (SD): 1.58 (1.439)
[1]; 6 mg, Week 11
  Change from Baseline in Stool Consistency, Mean (SD): 1.57 (1.499)
[1]; 6 mg, Week 12
  Change from Baseline in Stool Consistency, Mean (SD): 1.55 (1.488)
[1]; Active Combined, Week 4
  Change from Baseline in Stool Consistency, Mean (SD): 1.49 (1.553)
[1]; Active Combined, Week 5
  Change from Baseline in Stool Consistency, Mean (SD): 1.63 (1.528)
[1]; Active Combined, Week 6
  Change from Baseline in Stool Consistency, Mean (SD): 1.61 (1.528)
[1]; Active Combined, Week 7
  Change from Baseline in Stool Consistency, Mean (SD): 1.56 (1.489)
[1]; Active Combined, Week 8
  Change from Baseline in Stool Consistency, Mean (SD): 1.61 (1.516)
[1]; Active Combined, Week 9
  Change from Baseline in Stool Consistency, Mean (SD): 1.63 (1.483)
[1]; Active Combined, Week 10
  Change from Baseline in Stool Consistency, Mean (SD): 1.61 (1.481)
[1]; Active Combined, Week 11
  Change from Baseline in Stool Consistency, Mean (SD): 1.57 (1.538)
[1]; Active Combined, Week 12
  Change from Baseline in Stool Consistency, Mean (SD): 1.62 (1.478)
[2]; 3 mg, Week 5
  Change from Baseline in CSBMs, Mean (SD): 2.40 (3.334) CSBMs/week
[2]; 3 mg, Week 6
  Change from Baseline in CSBMs, Mean (SD): 2.42 (3.524) CSBMs/week
[2]; 3 mg, Week 7
  Change from Baseline in CSBMs, Mean (SD): 2.41 (3.388) CSBMs/week
[2]; 3 mg, Week 8
  Change from Baseline in CSBMs, Mean (SD): 2.64 (3.709) CSBMs/week
[2]; 3 mg, Week 9
  Change from Baseline in CSBMs, Mean (SD): 2.55 (3.428) CSBMs/week
[2]; 3 mg, Week 10
  Change from Baseline in CSBMs, Mean (SD): 2.59 (3.582) CSBMs/week
[2]; 3 mg, Week 11
  Change from Baseline in CSBMs, Mean (SD): 2.67 (3.667) CSBMs/week
[2]; 3 mg, Week 12
  Change from Baseline in CSBMs, Mean (SD): 2.74 (3.758) CSBMs/week
[2]; 6 mg, Week 4
  Change from Baseline in CSBMs, Mean (SD): 2.05 (3.223) CSBMs/week
[2]; 6 mg, Week 5
  Change from Baseline in CSBMs, Mean (SD): 1.97 (3.003) CSBMs/week
[2]; 6 mg, Week 6
  Change from Baseline in CSBMs, Mean (SD): 2.26 (3.359) CSBMs/week
[2]; 6 mg, Week 7
  Change from Baseline in CSBMs, Mean (SD): 2.33 (3.330) CSBMs/week
[2]; 6 mg, Week 8
  Change from Baseline in CSBMs, Mean (SD): 2.32 (3.221) CSBMs/week
[2]; 6 mg, Week 9
  Change from Baseline in CSBMs, Mean (SD): 2.35 (3.152) CSBMs/week
[2]; 6 mg, Week 10
  Change from Baseline in CSBMs, Mean (SD): 2.47 (3.274) CSBMs/week
[2]; 6 mg, Week 11
  Change from Baseline in CSBMs, Mean (SD): 2.43 (3.259) CSBMs/week
[2]; 6 mg, Week 12
  Change from Baseline in CSBMs, Mean (SD): 2.54 (3.382) CSBMs/week
[2]; Active Combined, Week 4
  Change from Baseline in CSBMs, Mean (SD): 2.13 (3.287) CSBMs/week
[2]; Active Combined, Week 5
  Change from Baseline in CSBMs, Mean (SD): 2.18 (3.176) CSBMs/week
[2]; Active Combined, Week 6
  Change from Baseline in CSBMs, Mean (SD): 2.34 (3.440) CSBMs/week
[2]; Active Combined, Week 7
  Change from Baseline in CSBMs, Mean (SD): 2.37 (3.357) CSBMs/week
[2]; Active Combined, Week 8
  Change from Baseline in CSBMs, Mean (SD): 2.48 (3.469) CSBMs/week
[2]; Active Combined, Week 9
  Change from Baseline in CSBMs, Mean (SD): 2.45 (3.288) CSBMs/week
[2]; Active Combined, Week 10
  Change from Baseline in CSBMs, Mean (SD): 2.52 (3.425) CSBMs/week
[2]; Active Combined, Week 11
  Change from Baseline in CSBMs, Mean (SD): 2.55 (3.463) CSBMs/week
[2]; Active Combined, Week 12
  Change from Baseline in CSBMs, Mean (SD): 2.64 (3.570) CSBMs/week
[3]; Post-Treatment Week 14, 6 mg
  Non-Responders, n (%): 386 (82.0) n (%)
[3]; Post-Treatment Week 14, Active Combined
  Non-Responders, n (%): 761 (80.9) n (%)
[3]; Week 1, 3 mg
  CSBM Weekly Responders, n (%): 128 (27.2) n (%)
[3]; Week 1, 6 mg
  CSBM Weekly Responders, n (%): 120 (25.5) n (%)
[3]; Week 1, Active Combined
  CSBM Weekly Responders, n (%): 248 (26.4) n (%)
[3]; Week 2, 3 mg
  Non-Responders, n (%): 350 (74.5) n (%)
[3]; Week 2, 6 mg
  Non-Responders, n (%): 339 (72.0) n (%)
[3]; Week 2, Active Combined
  Non-Responders, n (%): 689 (73.2) n (%)
[3]; Week 3, 3 mg
  Non-Responders, n (%): 335 (71.3) n (%)
[3]; Week 3, 6 mg
  CSBM Weekly Responders, n (%): 129 (27.4) n (%)
  Non-Responders, n (%): 342 (72.6) n (%)
[3]; Week 3, Active Combined
  CSBM Weekly Responders, n (%): 264 (28.1) n (%)
  Non-Responders, n (%): 677 (71.9) n (%)
[3]; Week 4, 3 mg
  CSBM Weekly Responders, n (%): 142 (30.2) n (%)
  Non-Responders, n (%): 328 (69.8) n (%)
[3]; Week 4, 6 mg
  CSBM Weekly Responders, n (%): 137 (29.1) n (%)
  Non-Responders, n (%): 334 (70.9) n (%)
[3]; Week 4, Active Combined
  CSBM Weekly Responders, n (%): 279 (29.6) n (%)
  Non-Responders, n (%): 662 (70.4) n (%)
[3]; Week 5, 3 mg
  CSBM Weekly Responders, n (%): 165 (35.1) n (%)
  Non-Responders, n (%): 305 (64.9) n (%)
[3]; Week 5, 6 mg
  CSBM Weekly Responders, n (%): 138 (29.3) n (%)
  Non-Responders, n (%): 333 (70.7) n (%)
[3]; Week 5, Active Combined
  CSBM Weekly Responders, n (%): 303 (32.2) n (%)
  Non-Responders, n (%): 638 (67.8) n (%)
[3]; Week 6, 3 mg
  CSBM Weekly Responders, n (%): 145 (30.9) n (%)
  Non-Responders, n (%): 325 (69.1) n (%)
[3]; Week 6, 6 mg
  CSBM Weekly Responders, n (%): 150 (31.8) n (%)
  Non-Responders, n (%): 321 (68.2) n (%)
[3]; Week 6, Active Combined
  CSBM Weekly Responders, n (%): 295 (31.3) n (%)
  Non-Responders, n (%): 646 (68.7) n (%)
[3]; Week 7, 3 mg
  CSBM Weekly Responders, n (%): 152 (32.3) n (%)
  Non-Responders, n (%): 318 (67.7) n (%)
[3]; Week 7, 6 mg
  CSBM Weekly Responders, n (%): 145 (30.8) n (%)
  Non-Responders, n (%): 326 (69.2) n (%)
[3]; Week 7, Active Combined
  CSBM Weekly Responders, n (%): 297 (31.6) n (%)
  Non-Responders, n (%): 644 (68.4) n (%)
[3]; Week 8, 3 mg
  CSBM Weekly Responders, n (%): 151 (32.1) n (%)
  Non-Responders, n (%): 319 (67.9) n (%)
[3]; Week 8, 6 mg
  CSBM Weekly Responders, n (%): 147 (31.2) n (%)
  Non-Responders, n (%): 324 (68.8) n (%)
[3]; Week 8, Active Combined
  CSBM Weekly Responders, n (%): 298 (31.7) n (%)
  Non-Responders, n (%): 643 (68.3) n (%)
[3]; Week 9, 3 mg
  CSBM Weekly Responders, n (%): 151 (32.1) n (%)
  Non-Responders, n (%): 319 (67.9) n (%)
[3]; Week 9, 6 mg
  CSBM Weekly Responders, n (%): 146 (31.0) n (%)
  Non-Responders, n (%): 325 (69.0) n (%)
[3]; Week 9, Active Combined
  CSBM Weekly Responders, n (%): 297 (31.6) n (%)
  Non-Responders, n (%): 644 (68.4) n (%)
[3]; Week 10, 3 mg
  CSBM Weekly Responders, n (%): 142 (30.2) n (%)
[3]; Week 10, 6 mg
  CSBM Weekly Responders, n (%): 156 (33.1) n (%)
[3]; Week 10, Active Combined
  CSBM Weekly Responders, n (%): 298 (31.7) n (%)
